The values below come from patent publication EP0081783B2 (Merck & Co., Inc., priority 1981, dated 1989).

This data set can be described thus: general procedure: Boc solid-phase peptide synthesis; BOC-Leu esterified to 2% cross-linked polystyrene-divinylbenzene; dicyclohexylcarbodiimide with 1-hydroxybenzotriazole hydrate. The conditions noted are these: for purity (crude or final not stated): late stage modification step, high performance liquid chromatography.

For the substance “N-isobutyryl-L-histidyl-L-prolyl-L-phenylalanyl-L-histidyl-(3S,4S)-statyl-L-leucylbenzylamide”, the “purity (crude or final not stated)” value is given as 93.1%.

Substance “Isobutyryi-L-histidyl-L-prolyl-L-phenylalanyl-L-histidyl-(3S,4S)-statyl-L-leucine methyl ester” displayed a crude mass (whole synthesis, scale 6 mmol) of 1.4 g. On to “Isobutyryl-L-hystidyl-I-prolyl-L-phenylalanyl-L-histidyl-(3S,4S)-statyl-L-leucine hydrazide”, for which the “purity (crude or final not stated)” value is “over 99%”.
